What all share (test): glycan array binding signal (z-score within array); higher = stronger binding
Conditions in all cases: glycan notation: IUPAC condensed, linker removed

The target in assay [1] is Gal(b1-4)Glc. The gist of the method:
(§1)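 Glycan array data came from 3228 arrays in the Consortium for Functional Glycomics database, and only arrays with an available protein sequence were kept. Glycan names were put into IUPAC-condensed notation, and columns mapping to the same glycan were averaged. The binding signal is a within-array Z-score, averaged across arrays of one protein sequence run at different concentrations or buffers and across linkers. A negative Z-score can be read as non-binding.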

The target in assay [2] is Gal(b1-4)Glc6S. The gist of the method:
as §1

Assay [3] deals with Gal(b1-4)GlcNAc. The gist of the method:
as §1

The target of assay [4] is Gal(b1-4)GlcNAc(a1-6)Gal(b1-4)GlcNAc. The gist of the method:
as §1

Assay [5] deals with Gal(b1-4)GlcNAc(b1-2)Man. An outline of the steps:
as §1

The target in assay [6] is Gal(b1-4)GlcNAc(b1-2)Man(a1-3)Man(b1-4)GlcNAc(b1-4)GlcNAc. The gist of the method: as §1
For assay [7], the target named is Gal(b1-4)GlcNAc(b1-2)Man(a1-3)[Gal(b1-4)GlcNAc(b1-2)Man(a1-6)]Man(b1-4)GlcNAc(b1-4)GlcNAc. An outline of the steps:
as §1

Assay [8] concerns the target Gal(b1-4)GlcNAc(b1-2)Man(a1-3)[Gal(b1-4)GlcNAc(b1-2)Man(a1-6)]Man(b1-4)GlcNAc(b1-4)[Fuc(a1-6)]GlcNAc. The gist of the method:
as §1

For assay [9], the target named is Gal(b1-4)GlcNAc(b1-2)Man(a1-3)[Gal(b1-4)GlcNAc(b1-2)Man(a1-6)][Gal(b1-4)GlcNAc(b1-4)]Man(b1-4)GlcNAc(b1-4)[Fuc(a1-6)]GlcNAc. The gist of the method:
as §1

In assay [10] the target is Gal(b1-4)GlcNAc(b1-2)Man(a1-3)[Gal(b1-4)GlcNAc(b1-2)Man(a1-6)][GlcNAc(b1-4)]Man(b1-4)GlcNAc(b1-4)[Fuc(a1-6)]GlcNAc. The gist of the method: as §1
For assay [11], the target named is Gal(b1-4)GlcNAc(b1-2)Man(a1-3)[GlcNAc(b1-2)Man(a1-6)]Man(b1-4)GlcNAc(b1-4)GlcNAc. The gist of the method:
as §1

Assay [12] deals with Gal(b1-4)GlcNAc(b1-2)Man(a1-3)[GlcNAc(b1-4)][Gal(b1-4)GlcNAc(b1-2)Man(a1-6)]Man(b1-4)GlcNAc(b1-4)GlcNAc. An outline of the steps:
as §1

Assay [13] addresses Gal(b1-4)GlcNAc(b1-2)Man(a1-3)[Man(a1-6)]Man(b1-4)GlcNAc(b1-4)GlcNAc. An outline of the steps: as §1
The target in assay [14] is Gal(b1-4)GlcNAc(b1-2)Man(a1-6)Man(b1-4)GlcNAc(b1-4)GlcNAc. The gist of the method:
as §1

For assay [15], the target named is Gal(b1-4)GlcNAc(b1-2)Man(a1-6)[GlcNAc(b1-2)Man(a1-3)]Man(b1-4)GlcNAc(b1-4)GlcNAc. The gist of the method:
as §1

Assay [16] deals with Gal(b1-4)GlcNAc(b1-2)Man(a1-6)[Man(a1-3)]Man(b1-4)GlcNAc(b1-4)GlcNAc. The gist of the method:
as §1

Assay [17] has as its target Gal(b1-4)GlcNAc(b1-2)[Gal(b1-4)GlcNAc(b1-4)]Man(a1-3)[Gal(b1-4)GlcNAc(b1-2)Man(a1-6)]Man(b1-4)GlcNAc(b1-4)GlcNAc. An outline of the steps: as §1
For assay [18], the target named is Gal(b1-4)GlcNAc(b1-2)[Gal(b1-4)GlcNAc(b1-4)]Man(a1-3)[Gal(b1-4)GlcNAc(b1-2)[Gal(b1-4)GlcNAc(b1-6)]Man(a1-6)]Man(b1-4)GlcNAc(b1-4)GlcNAc. The gist of the method:
as §1

The target in assay [19] is Gal(b1-4)GlcNAc(b1-2)[Gal(b1-4)GlcNAc(b1-4)]Man(a1-3)[GlcNAc(b1-4)][Gal(b1-4)GlcNAc(b1-2)Man(a1-6)]Man(b1-4)GlcNAc(b1-4)GlcNAc. An outline of the steps:
as §1

Assay [20] concerns the target Gal(b1-4)GlcNAc(b1-2)[Gal(b1-4)GlcNAc(b1-4)]Man(a1-3)[GlcNAc(b1-4)][Gal(b1-4)GlcNAc(b1-2)[Gal(b1-4)GlcNAc(b1-6)]Man(a1-6)]Man(b1-4)GlcNAc(b1-4)GlcNAc. An outline of the steps:
as §1

The target in assay [21] is Gal(b1-4)GlcNAc(b1-2)[Gal(b1-4)GlcNAc(b1-6)]Man(a1-6)[Gal(b1-4)GlcNAc(b1-2)Man(a1-3)]Man(b1-4)GlcNAc(b1-4)GlcNAc. An outline of the steps:
as §1

The target in assay [22] is Gal(b1-4)GlcNAc(b1-2)[Gal(b1-4)GlcNAc(b1-6)]Man(a1-6)[Gal(b1-4)GlcNAc(b1-2)Man(a1-3)]Man(b1-4)GlcNAc(b1-4)[Fuc(a1-6)]GlcNAc. An outline of the steps:
as §1

This is one part of the list.

B1: Aap arpt (Staphylococcus epidermidis) (protein)
chain: NNEAPQMSSTLQAEEGSNAEAPQSEPTKAEEGGNAEAAQSEPTKAEEGGNAEAPQSEPTKAEEGGNAEAAQSEPTKTEEGSNVKAAQSEPTKAEEGSNAEAPQSEPTKTEEGSNAKAAQSEPTKAEEGGNAEAAQSEPTKTEEGSNAEAPQSEPTKAEEGGYAEAPQSEPTKTEEGGNAEAPNVPTIKA
As to B1, the “glycan array binding signal (z-score)” value in assay [1] was 0.102; in [2], -0.309; in assay [3] it was -0.433; in assay [4], -0.625; in [5], 1.18; in assay [6] it was -0.757. The “glycan array binding signal (z-score)” value in assay [7] is -0.541; in [8] it was 0.746; in [9] it was -0.524; in assay [10], -1.24; in [11] it was 0.917; in assay [12], -1.14. In addition, the “glycan array binding signal (z-score)” value in [13] is -0.645; in assay [14], 1.96; in [15] it was 0.448; in assay [16], -0.99; in assay [17], 1.34; in assay [18] it was -0.745. For the same molecule, the “glycan array binding signal (z-score)” value is -0.56 in assay [19], -1.6 in assay [20], 0.416 in [21] and 1.91 in assay [22].

Source of the values: the supplement of paper PMC8728848.
